# Test results from the supplement of paper PMC10077471.
# Whole data set: some 1,900 compounds, median “excess over highest single agent (ExcessHSA) synergy score, 6x6 matrix” near -83, cut for the lowest 2% near -370. Some of the results follow.
# Tested on: NCI-H446
# Experiment: excess over highest single agent (ExcessHSA) synergy score, 6x6 matrix; higher = less synergy (more negative = stronger synergy)
# Details: 72 h; CellTiter-Glo viability
row,Structure (SMILES),excess over highest single agent
1,N[C@@H](Cc1ccc(N(CCCl)CCCl)cc1)C(=O)O + Cc1sc2c(c1C)C(c1ccc(Cl)cc1)=N[C@@H](CC(=O)OC(C)(C)C)c1nnc(C)n1-2 [NCGC00250412-19],-150
2,CCC[S+]([O-])c1ccc2[nH]c(NC(=O)OC)nc2c1 (stereo not drawn) + Cc1sc2c(c1C)C(c1ccc(Cl)cc1)=N[C@@H](CC(=O)OC(C)(C)C)c1nnc(C)n1-2 [NCGC00250412-19],-145
3,NC(=O)OCC(COC(N)=O)c1ccccc1 + Cc1sc2c(c1C)C(c1ccc(Cl)cc1)=N[C@@H](CC(=O)OC(C)(C)C)c1nnc(C)n1-2 [NCGC00250412-19],-44.4
4,CN[C@H]1CCc2cc(OC)c(OC)c(OC)c2-c2ccc(OC)c(=O)cc21 + Cc1sc2c(c1C)C(c1ccc(Cl)cc1)=N[C@@H](CC(=O)OC(C)(C)C)c1nnc(C)n1-2 [NCGC00250412-19],-167
5,O=C(CC12CC3CC(CC(C3)C1)C2)Nc1cccc2nc(NCCNCCO)ccc12 + Cc1sc2c(c1C)C(c1ccc(Cl)cc1)=N[C@@H](CC(=O)OC(C)(C)C)c1nnc(C)n1-2 [NCGC00250412-19],-112
6,C[C@H](Cc1cc2c(c(C(N)=O)c1)N(CCCO)CC2)NCCOc1ccccc1OCC(F)(F)F + Cc1sc2c(c1C)C(c1ccc(Cl)cc1)=N[C@@H](CC(=O)OC(C)(C)C)c1nnc(C)n1-2 [NCGC00250412-19],50.9
7,CN(C)CCOc1ccc(-c2nc(-c3ccncc3)c(-c3ccc4c(c3)CC/C4=N\O)[nH]2)cc1 + Cc1sc2c(c1C)C(c1ccc(Cl)cc1)=N[C@@H](CC(=O)OC(C)(C)C)c1nnc(C)n1-2 [NCGC00250412-19],24.2
8,NS(=O)(=O)OC[C@@H]1C[C@@H](n2ccc3c(N[C@H]4CCc5ccccc54)ncnc32)C[C@@H]1O + Cc1sc2c(c1C)C(c1ccc(Cl)cc1)=N[C@@H](CC(=O)OC(C)(C)C)c1nnc(C)n1-2 [NCGC00250412-19],-544
9,CNC(=O)c1ccc(Nc2cc(Nc3ccccc3S(=O)(=O)C(C)C)c3cc[nH]c3n2)nc1 + Cc1sc2c(c1C)C(c1ccc(Cl)cc1)=N[C@@H](CC(=O)OC(C)(C)C)c1nnc(C)n1-2 [NCGC00250412-19],-116
10,Cc1cc(Cl)ccc1OCCCC(=O)NO + Cc1sc2c(c1C)C(c1ccc(Cl)cc1)=N[C@@H](CC(=O)OC(C)(C)C)c1nnc(C)n1-2 [NCGC00250412-19],23.3
11,O=C(c1ccc(/C=C/c2n[nH]c3ccccc23)cc1)N1CCNCC1 + Cc1sc2c(c1C)C(c1ccc(Cl)cc1)=N[C@@H](CC(=O)OC(C)(C)C)c1nnc(C)n1-2 [NCGC00250412-19],-19.2
12,C/C(=C\C(=O)Nc1ccccc1C(=O)O)c1ccc2ccccc2c1 + Cc1sc2c(c1C)C(c1ccc(Cl)cc1)=N[C@@H](CC(=O)OC(C)(C)C)c1nnc(C)n1-2 [NCGC00250412-19],-120
13,CS(=O)(=O)c1ccc(-c2cnc(N)c(C(=O)Nc3ccccc3)n2)cc1 + Cc1sc2c(c1C)C(c1ccc(Cl)cc1)=N[C@@H](CC(=O)OC(C)(C)C)c1nnc(C)n1-2 [NCGC00250412-19],122
14,NS(=O)(=O)c1cc(Cl)c(Cl)c(S(N)(=O)=O)c1 + Cc1sc2c(c1C)C(c1ccc(Cl)cc1)=N[C@@H](CC(=O)OC(C)(C)C)c1nnc(C)n1-2 [NCGC00250412-19],146
15,CCCCCNC(=N)N/N=C/c1c[nH]c2ccc(OC)cc12 + Cc1sc2c(c1C)C(c1ccc(Cl)cc1)=N[C@@H](CC(=O)OC(C)(C)C)c1nnc(C)n1-2 [NCGC00250412-19],-157
16,COc1c(C)c2c(c(O)c1C/C=C(\C)CCC(=O)O)C(=O)OC2 + Cc1sc2c(c1C)C(c1ccc(Cl)cc1)=N[C@@H](CC(=O)OC(C)(C)C)c1nnc(C)n1-2 [NCGC00250412-19],-255
17,O=C(O)C1=CO[C@@H](O[C@@H]2O[C@H](CO)[C@@H](O)[C@H](O)[C@H]2O)[C@@H]2C(CO)=CC[C@H]12 + Cc1sc2c(c1C)C(c1ccc(Cl)cc1)=N[C@@H](CC(=O)OC(C)(C)C)c1nnc(C)n1-2 [NCGC00250412-19],346
18,Cc1ccnc(NS(=O)(=O)c2ccc(NC(=O)Nc3ccc(S(=O)(=O)Nc4nccc(C)n4)cc3)cc2)n1 + Cc1sc2c(c1C)C(c1ccc(Cl)cc1)=N[C@@H](CC(=O)OC(C)(C)C)c1nnc(C)n1-2 [NCGC00250412-19],-31.6
19,Clc1ccc(C(c2ccc(Cl)cc2)[n+]2ccn(CC(OCc3ccc(Cl)cc3Cl)c3ccc(Cl)cc3Cl)c2)cc1 (stereo not drawn) + Cc1sc2c(c1C)C(c1ccc(Cl)cc1)=N[C@@H](CC(=O)OC(C)(C)C)c1nnc(C)n1-2 [NCGC00250412-19],-191

row,Structure (SMILES),excess over highest single agent
1,CC(C)(C)c1nc(-c2cccc(NS(=O)(=O)c3c(F)cccc3F)c2F)c(-c2ccnc(N)n2)s1 + Cc1sc2c(c1C)C(c1ccc(Cl)cc1)=N[C@@H](CC(=O)OC(C)(C)C)c1nnc(C)n1-2 [NCGC00250412-19],8.09
2,COc1cccc2c1CCCC2CCCN1CCN(C2CCCCC2)CC1 (stereo not drawn) + Cc1sc2c(c1C)C(c1ccc(Cl)cc1)=N[C@@H](CC(=O)OC(C)(C)C)c1nnc(C)n1-2 [NCGC00250412-19],-180
3,C[C@H]1O[C@@H](n2cc(F)c(=O)[nH]c2=O)[C@H](O)[C@@H]1O + Cc1sc2c(c1C)C(c1ccc(Cl)cc1)=N[C@@H](CC(=O)OC(C)(C)C)c1nnc(C)n1-2 [NCGC00250412-19],-2.28
4,O=C(O)CCCCC(CCSCc1ccccc1)SCc1ccccc1 (stereo not drawn) + Cc1sc2c(c1C)C(c1ccc(Cl)cc1)=N[C@@H](CC(=O)OC(C)(C)C)c1nnc(C)n1-2 [NCGC00250412-19],-98.5
5,C[C@H]([C@H](O)CCC(C)(C)O)[C@H]1CC[C@@]2(O)C3=CC(=O)[C@@H]4C[C@@H](O)[C@@H](O)C[C@]4(C)[C@H]3CC[C@]12C + Cc1sc2c(c1C)C(c1ccc(Cl)cc1)=N[C@@H](CC(=O)OC(C)(C)C)c1nnc(C)n1-2 [NCGC00250412-19],-147
6,O=c1c(-c2ccc(O)cc2)coc2cc(O)ccc12 + Cc1sc2c(c1C)C(c1ccc(Cl)cc1)=N[C@@H](CC(=O)OC(C)(C)C)c1nnc(C)n1-2 [NCGC00250412-19],-75.6
7,COc1cccc(Nc2c(C(N)=O)cnc3c(C)cc(S(=O)(=O)c4cccc(C(=O)N(C)C)c4)cc23)c1 + Cc1sc2c(c1C)C(c1ccc(Cl)cc1)=N[C@@H](CC(=O)OC(C)(C)C)c1nnc(C)n1-2 [NCGC00250412-19],-40.6
8,CC(C(C)N1CC(=O)NC(=O)C1)N1CC(=O)NC(=O)C1 (stereo not drawn) + Cc1sc2c(c1C)C(c1ccc(Cl)cc1)=N[C@@H](CC(=O)OC(C)(C)C)c1nnc(C)n1-2 [NCGC00250412-19],-113
9,N#Cc1ccc(COC[C@H]2O[C@@H](n3c(NCc4ccc(Cl)c(Cl)c4)nc4c(N)ncnc43)[C@H](O)[C@@H]2O)cc1 + Cc1sc2c(c1C)C(c1ccc(Cl)cc1)=N[C@@H](CC(=O)OC(C)(C)C)c1nnc(C)n1-2 [NCGC00250412-19],90.3
10,CN(C)CCN(C)CCc1ccc(Cl)c(Cl)c1 + Cc1sc2c(c1C)C(c1ccc(Cl)cc1)=N[C@@H](CC(=O)OC(C)(C)C)c1nnc(C)n1-2 [NCGC00250412-19],-198
11,C[C@@H](O)[C@H]1C(=O)N2C(C(=O)O)=C(S[C@@H]3CN[C@H](C(=O)N(C)C)C3)[C@H](C)[C@H]12 + Cc1sc2c(c1C)C(c1ccc(Cl)cc1)=N[C@@H](CC(=O)OC(C)(C)C)c1nnc(C)n1-2 [NCGC00250412-19],-145
12,CC(=O)O[C@H]1C[C@@H]2CC[C@@H]3[C@H](CC[C@@]4(C)[C@H]3C[C@H]([N+]3(C)CCCCC3)[C@@H]4OC(C)=O)[C@@]2(C)C[C@@H]1N1CCCCC1 + Cc1sc2c(c1C)C(c1ccc(Cl)cc1)=N[C@@H](CC(=O)OC(C)(C)C)c1nnc(C)n1-2 [NCGC00250412-19],-1.01
13,CN(C)Cc1cccc(N=C(c2ccccc2)c2c(O)[nH]c3cc(C(=O)N(C)C)ccc23)c1 + Cc1sc2c(c1C)C(c1ccc(Cl)cc1)=N[C@@H](CC(=O)OC(C)(C)C)c1nnc(C)n1-2 [NCGC00250412-19],140
14,OC(c1cc(C(F)(F)F)nc2c(C(F)(F)F)cccc12)C1CCCCN1 (stereo not drawn) + Cc1sc2c(c1C)C(c1ccc(Cl)cc1)=N[C@@H](CC(=O)OC(C)(C)C)c1nnc(C)n1-2 [NCGC00250412-19],-37.8
15,CC(C)C[C@@H](N)[C@H](O)C(=O)N[C@H](C(=O)N[C@H](C(=O)N[C@@H](CC(=O)O)C(=O)O)C(C)C)C(C)C + Cc1sc2c(c1C)C(c1ccc(Cl)cc1)=N[C@@H](CC(=O)OC(C)(C)C)c1nnc(C)n1-2 [NCGC00250412-19],306
16,Cc1coc2c1C(=O)C(=O)c1c-2ccc2c1CCCC2(C)C + Cc1sc2c(c1C)C(c1ccc(Cl)cc1)=N[C@@H](CC(=O)OC(C)(C)C)c1nnc(C)n1-2 [NCGC00250412-19],95.2
17,Cc1cn2cc(C(=O)N(C)CCO)cc(N[C@@H]3CCOc4cccc(C)c43)c2n1 + Cc1sc2c(c1C)C(c1ccc(Cl)cc1)=N[C@@H](CC(=O)OC(C)(C)C)c1nnc(C)n1-2 [NCGC00250412-19],64.1
18,COc1ccc(CCN2CCN(CCCc3ccccc3)CC2)cc1OC + Cc1sc2c(c1C)C(c1ccc(Cl)cc1)=N[C@@H](CC(=O)OC(C)(C)C)c1nnc(C)n1-2 [NCGC00250412-19],-120
19,CNCCCC12CCC(c3ccccc31)c1ccccc12 + Cc1sc2c(c1C)C(c1ccc(Cl)cc1)=N[C@@H](CC(=O)OC(C)(C)C)c1nnc(C)n1-2 [NCGC00250412-19],-71.9

# Reprinted at random: 2 entries already listed, in no set order.
row,Structure (SMILES),excess over highest single agent
7,COc1cccc(Nc2c(C(N)=O)cnc3c(C)cc(S(=O)(=O)c4cccc(C(=O)N(C)C)c4)cc23)c1 + Cc1sc2c(c1C)C(c1ccc(Cl)cc1)=N[C@@H](CC(=O)OC(C)(C)C)c1nnc(C)n1-2 [NCGC00250412-19],-40.6
8,CC(C(C)N1CC(=O)NC(=O)C1)N1CC(=O)NC(=O)C1 (stereo not drawn) + Cc1sc2c(c1C)C(c1ccc(Cl)cc1)=N[C@@H](CC(=O)OC(C)(C)C)c1nnc(C)n1-2 [NCGC00250412-19],-113
